Experimental data: paper PMC5647383
No constants are given. Whether binding was seen depends on the method and setting. In cells and extracts the contact can be indirect. Some results given as binding are weak or reduced against the parent protein; the word gives no strength.

Amino acid sequences for entries named in this document (tags omitted).
UniProt Q7RTP6: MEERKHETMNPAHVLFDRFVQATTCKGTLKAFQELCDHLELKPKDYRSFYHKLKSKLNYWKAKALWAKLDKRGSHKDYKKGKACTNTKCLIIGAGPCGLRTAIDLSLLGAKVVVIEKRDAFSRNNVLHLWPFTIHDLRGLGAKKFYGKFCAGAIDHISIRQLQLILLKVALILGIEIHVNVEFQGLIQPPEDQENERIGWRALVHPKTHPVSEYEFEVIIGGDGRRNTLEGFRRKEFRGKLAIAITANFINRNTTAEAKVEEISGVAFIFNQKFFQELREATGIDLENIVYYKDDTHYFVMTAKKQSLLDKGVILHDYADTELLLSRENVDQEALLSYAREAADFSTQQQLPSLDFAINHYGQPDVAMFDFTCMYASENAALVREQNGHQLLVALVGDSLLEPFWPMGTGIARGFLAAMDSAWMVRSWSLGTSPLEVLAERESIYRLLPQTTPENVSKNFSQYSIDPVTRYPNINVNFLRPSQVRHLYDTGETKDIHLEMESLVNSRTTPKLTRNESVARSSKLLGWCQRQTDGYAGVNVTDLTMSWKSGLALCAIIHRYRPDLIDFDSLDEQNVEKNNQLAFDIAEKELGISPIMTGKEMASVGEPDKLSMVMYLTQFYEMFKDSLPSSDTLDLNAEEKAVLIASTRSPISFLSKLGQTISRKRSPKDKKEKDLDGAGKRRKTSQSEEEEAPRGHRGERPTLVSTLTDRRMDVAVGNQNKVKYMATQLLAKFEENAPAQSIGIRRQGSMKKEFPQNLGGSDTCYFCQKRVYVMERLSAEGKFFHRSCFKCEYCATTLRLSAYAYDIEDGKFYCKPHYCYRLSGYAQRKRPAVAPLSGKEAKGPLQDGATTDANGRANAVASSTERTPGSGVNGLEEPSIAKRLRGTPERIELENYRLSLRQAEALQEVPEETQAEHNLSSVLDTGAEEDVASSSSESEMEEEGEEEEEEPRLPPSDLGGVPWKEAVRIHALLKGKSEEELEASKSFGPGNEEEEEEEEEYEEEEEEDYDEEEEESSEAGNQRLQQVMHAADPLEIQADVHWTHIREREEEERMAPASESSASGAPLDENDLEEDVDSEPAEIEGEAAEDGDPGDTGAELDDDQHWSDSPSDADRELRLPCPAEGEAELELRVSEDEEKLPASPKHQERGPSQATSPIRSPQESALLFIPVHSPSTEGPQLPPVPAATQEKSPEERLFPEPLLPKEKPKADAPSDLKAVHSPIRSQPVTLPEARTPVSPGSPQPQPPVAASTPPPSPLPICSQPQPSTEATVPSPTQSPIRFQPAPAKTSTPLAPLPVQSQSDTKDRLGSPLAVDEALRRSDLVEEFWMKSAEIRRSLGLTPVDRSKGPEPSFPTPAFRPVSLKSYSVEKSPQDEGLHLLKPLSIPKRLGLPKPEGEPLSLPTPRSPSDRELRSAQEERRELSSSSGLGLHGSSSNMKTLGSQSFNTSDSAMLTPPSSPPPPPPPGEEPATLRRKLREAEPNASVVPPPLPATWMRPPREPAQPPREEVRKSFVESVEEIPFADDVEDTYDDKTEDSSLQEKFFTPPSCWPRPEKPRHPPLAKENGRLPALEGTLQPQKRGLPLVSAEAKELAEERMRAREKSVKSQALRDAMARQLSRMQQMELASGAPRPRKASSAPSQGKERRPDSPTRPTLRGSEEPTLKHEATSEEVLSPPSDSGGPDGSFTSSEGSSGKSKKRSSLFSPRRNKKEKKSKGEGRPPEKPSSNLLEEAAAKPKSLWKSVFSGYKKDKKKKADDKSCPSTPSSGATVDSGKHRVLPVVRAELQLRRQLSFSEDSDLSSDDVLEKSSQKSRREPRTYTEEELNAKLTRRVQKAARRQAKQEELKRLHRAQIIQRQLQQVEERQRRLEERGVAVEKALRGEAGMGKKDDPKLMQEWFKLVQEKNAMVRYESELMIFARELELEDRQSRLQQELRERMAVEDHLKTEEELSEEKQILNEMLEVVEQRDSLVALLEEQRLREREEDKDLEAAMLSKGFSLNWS
UniProt P61006: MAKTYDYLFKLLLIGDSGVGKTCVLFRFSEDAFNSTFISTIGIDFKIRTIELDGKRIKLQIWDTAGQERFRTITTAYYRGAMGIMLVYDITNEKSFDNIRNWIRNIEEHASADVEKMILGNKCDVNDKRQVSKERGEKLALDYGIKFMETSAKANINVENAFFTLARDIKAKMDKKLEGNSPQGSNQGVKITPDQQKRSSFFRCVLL

Target: BioGFP-MICAL3 (UniProt Q7RTP6)
Assay: cross-linking; complexes from co-transfected HEK293T cells isolated in one step on streptavidin Dynabeads by the BioGFP bait, cross-linked on beads with 1 mM DSSO (20 mM HEPES pH 7.8, 150 mM NaCl, 45 min, room temperature), trypsin digest, LC/MS/MS, XlinkX, 1% FDR

binding	Molecule
binds	BFP-Rab8A (from UniProt P61006 1-207)
binds	mCherry-ELKS-FL (protein, UniProt Q8IUD2 1-1116) MYGSARSVGKVEPSSQSPGRSPRLPRSPRLGHRRTNSTGGSSGSSVGGGSGKTLSMENIQSLNAAYATSGPMYLSDHENVGSETPKSTMTLGRSGGRLPYGVRMTAMGSSPNIASSGVASDTIAFGEHHLPPVSMASTVPHSLRQARDNTIMDLQTQLKEVLRENDLLRKDVEVKESKLSSSMNSIKTFWSPELKKERALRKDEASKITIWKEQYRVVQEENQHMQMTIQALQDELRIQRDLNQLFQQDSSSRTGEPCVAELTEENFQRLHAEHERQAKELFLLRKTLEEMELRIETQKQTLNARDESIKKLLEMLQSKGLSAKATEEDHERTRRLAEAEMHVHHLESLLEQKEKENSMLREEMHRRFENAPDSAKTKALQTVIEMKDSKISSMERGLRDLEEEIQMLKSNGALSTEEREEEMKQMEVYRSHSKFMKNKVEQLKEELSSKEAQWEELKKKAAGLQAEIGQVKQELSRKDTELLALQTKLETLTNQFSDSKQHIEVLKESLTAKEQRAAILQTEVDALRLRLEEKETMLNKKTKQIQDMAEEKGTQAGEIHDLKDMLDVKERKVNVLQKKIENLQEQLRDKEKQMSSLKERVKSLQADTTNTDTALTTLEEALAEKERTIERLKEQRDRDEREKQEEIDNYKKDLKDLKEKVSLLQGDLSEKEASLLDLKEHASSLASSGLKKDSRLKTLEIALEQKKEECLKMESQLKKAHEAALEARASPEMSDRIQHLEREITRYKDESSKAQAEVDRLLEILKEVENEKNDKDKKIAELERQVKDQNKKVANLKHKEQVEKKKSAQMLEEARRREDNLNDSSQQLQDSLRKKDDRIEELEEALRESVQITAEREMVLAQEESARTNAEKQVEELLMAMEKVKQELESMKAKLSSTQQSLAEKETHLTNLRAERRKHLEEVLEMKQEALLAAISEKDANIALLELSSSKKKTQEEVAALKREKDRLVQQLKQQTQNRMKLMADNYEDDHFKSSHSNQTNHKPSPDQIIQPLLELDQNRSKLKLYIGHLTTLCHDRDPLILRGLTPPASYNLDDDQAAWENELQKMTRGQLQDELEKGERDNAELQEFANAILQQIADHCPDILEQVVNALEESS
